Reference: paper PMC7819943, “Rice protein-binding microarrays: a tool to detect cis-acting elements near promoter regions in rice”
The other results are listed elsewhere or left out.

biological target: T1, OsSMF1 (Oryza sativa, UniProt Q6ZLB0 1-436); assay: protein-binding microarray (RPBM); PBS, 2% BSA, 51.3 ng/ul salmon testes DNA, 50 uM zinc acetate, 200 nM TF, 25 C, 1 h; high values mean tight binding; conditions: protein: recombinant; tags: N-terminal polyhistidine and DsRed monomer fusion (pET32a); chain copies: 2; label: CyDye5-dUTP incorporated in the synthesized complementary strand; 3' TTTTT single-stranded linker to array surface; dsDNA, one strand shown
T1 sequence: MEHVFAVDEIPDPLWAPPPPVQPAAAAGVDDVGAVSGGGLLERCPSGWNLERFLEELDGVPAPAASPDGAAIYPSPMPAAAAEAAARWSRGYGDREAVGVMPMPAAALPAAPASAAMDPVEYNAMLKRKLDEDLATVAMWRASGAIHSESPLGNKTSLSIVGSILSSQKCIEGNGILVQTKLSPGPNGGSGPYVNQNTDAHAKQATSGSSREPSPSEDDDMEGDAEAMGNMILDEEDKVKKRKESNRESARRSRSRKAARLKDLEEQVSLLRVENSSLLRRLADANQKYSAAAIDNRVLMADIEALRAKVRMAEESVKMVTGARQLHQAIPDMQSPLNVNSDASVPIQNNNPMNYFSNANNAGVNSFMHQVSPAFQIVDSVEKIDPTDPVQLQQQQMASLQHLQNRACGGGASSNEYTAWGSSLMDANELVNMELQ
In short: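 Transcription factors were made in E. coli BL21-CodonPlus as N-terminal fusions to a polyhistidine tag and DsRed, then purified on Ni–NTA. After primer extension with Cy5-dUTP and blocking with 2% BSA, a custom Agilent array was exposed for 1 h at 25 °C to 200 nM protein in PBS, 2% BSA, salmon testes DNA and 50 µM zinc acetate. Washed arrays were scanned on an Axon 4000B, and the binding signal is per-feature fluorescence intensity in arbitrary units.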

Sequence | binding signal
CCTCGTCAATTTCTCATTCGCCGTAGGACACCTAAGCACACGGAGTCACCTAGTGCAG | 3930 fluorescence intensity (a.u.)
AAATTGTGAGCCATAGTGTCATCTTTTCATAGCTTTATTCCGGAGTCACCTAGTGCAG | 3400 fluorescence intensity (a.u.)
CCGAGAGAAAGAGAGCAAGAGAGAGAGACGGGCTCAAGAGCGGAGTCACCTAGTGCAG | 4560 fluorescence intensity (a.u.)
AGCCTGAAGCTGCTTTCGTCGTCACCGGTTGCCGTCTGATCGGAGTCACCTAGTGCAG | 4560 fluorescence intensity (a.u.)
TTAGCCATTGCTACTTGCTTGCAGCGCGCGTGTCGGCTAGCGGAGTCACCTAGTGCAG | 25300 fluorescence intensity (a.u.)
CCCCACGCAGTCCAGAGCGGATCGAATGCGTGGCCCTCGCCGGAGTCACCTAGTGCAG | 3280 fluorescence intensity (a.u.)
TCTGGTCTTTCCGCGTGTCGACGACCACGGTGGCGGTGCACGGAGTCACCTAGTGCAG | 3540 fluorescence intensity (a.u.)
AACTGATATGTAGGGTATGATTGTAATGAAATTACGATTGCGGAGTCACCTAGTGCAG | 4750 fluorescence intensity (a.u.)
CTGTATTCATTAGGGTGGGACTGTATACTATAGTTATTATCGGAGTCACCTAGTGCAG | 3190 fluorescence intensity (a.u.)
CTTCACCTTCCGAATCCTGAACTGACGTCTGCAAGACTGCCGGAGTCACCTAGTGCAG | 5270 fluorescence intensity (a.u.)
AACGTCGCCGCTTGGTCTCCACGTCGAGTGGTCCTAGCCCCGGAGTCACCTAGTGCAG | 5250 fluorescence intensity (a.u.)
CAAGATCCGACGGCTCCCAATGGCTCTGGTGACATGTCTCCGGAGTCACCTAGTGCAG | 3470 fluorescence intensity (a.u.)
GATGGGACCACTCGTGACTCGTGCCACCCTCCGTGGCCCACGGAGTCACCTAGTGCAG | 3680 fluorescence intensity (a.u.)
GATCACTGTACTGTACAGAGGCTAGCTCTAGCTAGGTAGCCGGAGTCACCTAGTGCAG | 26000 fluorescence intensity (a.u.)
AATGGCTTTTATCAGATTCGCGGTGGACACGTGTCCATCACGGAGTCACCTAGTGCAG | 16700 fluorescence intensity (a.u.)
TTCCCGCCTACATTTTCGCCACGTCAGCGATCCGCACCGACGGAGTCACCTAGTGCAG | 9350 fluorescence intensity (a.u.)
ACTGTATTCCAGATCAGTAAACAGGCAGACGTATAATATACGGAGTCACCTAGTGCAG | 23200 fluorescence intensity (a.u.)
CCATGTGGAGGGAATTTTGCCCGAACAAGAGGTGACTGTGCGGAGTCACCTAGTGCAG | 4540 fluorescence intensity (a.u.)
TGTACTATACTTGTGATGATGATGATCAGCCTCATAGTAGCGGAGTCACCTAGTGCAG | 4340 fluorescence intensity (a.u.)
TACTCTGACATGAATTGGTAATTTTATATAGGCTTTATCTCGGAGTCACCTAGTGCAG | 3200 fluorescence intensity (a.u.)
TCTCAATATCCAGTCGACGAGTCAGCAGCAGAGACGCAGACGGAGTCACCTAGTGCAG | 5450 fluorescence intensity (a.u.)
TCTCTCTCACTCTTCTCTTGCAGGCCTGCGTGGCATACTACGGAGTCACCTAGTGCAG | 7430 fluorescence intensity (a.u.)
GGAAAACTGCCAATAGCATCATCATCAGGTTCTCTGATATCGGAGTCACCTAGTGCAG | 22000 fluorescence intensity (a.u.)

Rewritten as tab-separated lines: part of the list above
Sequence	binding signal
CTTCACCTTCCGAATCCTGAACTGACGTCTGCAAGACTGCCGGAGTCACCTAGTGCAG	5270 fluorescence intensity (a.u.)
AACGTCGCCGCTTGGTCTCCACGTCGAGTGGTCCTAGCCCCGGAGTCACCTAGTGCAG	5250 fluorescence intensity (a.u.)
